Data from PMC8973876.
These are yes or no findings as the source states them, for the method shown. In cells and extracts the contact can be indirect.

By UniProt entry, the sequences of proteins in these tests, tags left out. Where a name states a change or a piece, a line headed by the entry shows the natural chain unless it says otherwise. Residues count along the entry.
UniProt Q80WC1: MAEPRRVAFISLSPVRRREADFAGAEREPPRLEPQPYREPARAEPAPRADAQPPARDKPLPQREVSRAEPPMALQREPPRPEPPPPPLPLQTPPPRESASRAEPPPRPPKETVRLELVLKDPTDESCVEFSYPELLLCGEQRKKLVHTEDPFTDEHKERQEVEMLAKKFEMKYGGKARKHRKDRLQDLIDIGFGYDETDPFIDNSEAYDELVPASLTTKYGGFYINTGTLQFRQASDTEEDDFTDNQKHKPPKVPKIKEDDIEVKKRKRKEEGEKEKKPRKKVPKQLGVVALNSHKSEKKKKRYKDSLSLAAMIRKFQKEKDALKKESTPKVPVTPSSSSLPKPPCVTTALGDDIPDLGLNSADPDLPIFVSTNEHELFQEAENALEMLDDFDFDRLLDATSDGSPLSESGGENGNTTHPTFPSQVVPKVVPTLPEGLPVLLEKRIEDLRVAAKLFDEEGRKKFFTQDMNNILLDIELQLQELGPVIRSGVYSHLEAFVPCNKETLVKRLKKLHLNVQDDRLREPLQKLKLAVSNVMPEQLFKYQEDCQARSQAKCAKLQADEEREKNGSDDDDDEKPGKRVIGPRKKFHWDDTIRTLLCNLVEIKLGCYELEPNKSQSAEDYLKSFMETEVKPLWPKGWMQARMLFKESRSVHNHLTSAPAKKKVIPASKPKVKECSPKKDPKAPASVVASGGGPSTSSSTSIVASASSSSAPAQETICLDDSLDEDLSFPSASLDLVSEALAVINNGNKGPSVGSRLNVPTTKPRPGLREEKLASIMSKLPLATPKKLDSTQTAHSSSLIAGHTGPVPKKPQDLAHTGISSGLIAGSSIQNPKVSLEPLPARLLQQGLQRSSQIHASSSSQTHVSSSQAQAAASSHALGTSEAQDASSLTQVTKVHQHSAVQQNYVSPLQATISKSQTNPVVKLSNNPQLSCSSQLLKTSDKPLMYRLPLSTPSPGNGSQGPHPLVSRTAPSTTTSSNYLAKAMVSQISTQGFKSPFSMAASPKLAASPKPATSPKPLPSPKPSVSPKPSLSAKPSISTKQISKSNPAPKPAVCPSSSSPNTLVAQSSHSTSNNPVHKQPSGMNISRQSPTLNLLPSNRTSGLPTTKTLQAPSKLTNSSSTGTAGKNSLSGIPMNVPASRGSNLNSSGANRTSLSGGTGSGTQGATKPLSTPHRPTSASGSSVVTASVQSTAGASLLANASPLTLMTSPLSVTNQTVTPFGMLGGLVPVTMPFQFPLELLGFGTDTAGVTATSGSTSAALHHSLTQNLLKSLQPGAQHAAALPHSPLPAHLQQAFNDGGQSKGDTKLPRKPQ
UniProt Q61666, residues 373-1015: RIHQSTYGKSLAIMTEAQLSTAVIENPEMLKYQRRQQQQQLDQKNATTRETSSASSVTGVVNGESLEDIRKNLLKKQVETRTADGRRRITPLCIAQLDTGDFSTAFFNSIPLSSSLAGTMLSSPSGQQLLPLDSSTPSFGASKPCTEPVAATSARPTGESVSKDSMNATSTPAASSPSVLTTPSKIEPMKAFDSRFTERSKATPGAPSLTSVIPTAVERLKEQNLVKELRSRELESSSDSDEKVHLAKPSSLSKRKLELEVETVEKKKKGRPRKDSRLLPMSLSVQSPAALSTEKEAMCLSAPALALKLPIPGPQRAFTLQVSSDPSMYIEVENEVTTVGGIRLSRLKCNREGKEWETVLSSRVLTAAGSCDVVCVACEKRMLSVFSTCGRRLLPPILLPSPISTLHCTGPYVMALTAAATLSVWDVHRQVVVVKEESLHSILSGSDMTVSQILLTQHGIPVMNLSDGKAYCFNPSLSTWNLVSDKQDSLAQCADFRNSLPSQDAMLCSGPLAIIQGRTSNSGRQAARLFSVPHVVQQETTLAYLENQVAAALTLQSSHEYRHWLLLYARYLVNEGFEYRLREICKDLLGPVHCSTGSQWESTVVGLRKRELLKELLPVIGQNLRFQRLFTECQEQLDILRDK

Biological target: Ubn2 (full-length mouse Ubn2) (mouse) (UniProt Q80WC1)
Experiment: co-IP; Flag-tag and HA-tag plasmids expressing Ubn2 or Hira transfected into HEK-293T cells; whole cell lysate incubated with Flag-tag magnetic beads; eluate analysed by western blot

binding: no binding
Substance: Hira ΔWD40 (truncation of mouse Hira containing amino acids 373-1016) (from UniProt Q61666 373-1015) (domain or fragment)
